Results taken from patent US20260103526A1.
No constants are given. Whether binding was seen depends on the method and setting. Some entries that bind do so weakly or less than the wild type.

Columns and labels:
[1] = biological target: Fc-CLEC-1A (recombinant human Fc-CLEC-1 protein, OSE IMMUNOTHERAPEUTICS) (human); assay: flow cytometry competition: antibody pre-incubated with A488-labelled Fc-CLEC1 (100 nM), then binding to non-permeabilised NALM6 cells (CLEC-1 ligand m15); % stained cells
[2] = biological target: Fc-CLEC-1A (recombinant human Fc-CLEC-1 protein, OSE IMMUNOTHERAPEUTICS) (human); assay: flow cytometry competition: antibody pre-incubated with A488-labelled Fc-CLEC1 (100 nM), then binding to permeabilised NALM6 cells (CLEC-1 ligand m15); % stained cells
[3] = biological target: Fc-CLEC-1A (recombinant human Fc-CLEC-1 protein, OSE IMMUNOTHERAPEUTICS) (human); assay: flow cytometry competition: antibody pre-incubated with A488-labelled human Fc-CLEC-1 (10 µg/mL), then binding to live Hepa1.6 cells (ligand m16); % hFc-CLEC-1+ cells normalised on hIgG4
[4] = biological target: Fc-CLEC-1A (recombinant human Fc-CLEC-1 protein, OSE IMMUNOTHERAPEUTICS) (human); assay: flow cytometry competition: antibody pre-incubated with A488-labelled human Fc-CLEC-1 (10 µg/mL), then binding to live MC38 cells (ligand m16); % hFc-CLEC-1+ cells normalised on hIgG4
[5] = biological target: Fc-CLEC-1A (recombinant human Fc-CLEC-1 protein, OSE IMMUNOTHERAPEUTICS) (human); assay: flow cytometry competition: antibody pre-incubated with A488-labelled Fc-CLEC1 (10 nM), then binding to permeabilised Raji cells (CLEC-1 ligand m15); % stained cells
[6] = biological target: Fc-CLEC-1A (recombinant human Fc-CLEC-1 protein, OSE IMMUNOTHERAPEUTICS) (human); assay: ELISA on immobilized Fc-CLEC1 (2 ug/ml)
[7] = biological target: Fc-CLEC-1A (recombinant human Fc-CLEC-1 protein, OSE IMMUNOTHERAPEUTICS) (human); assay: CLEC1 binding assay (ELISA) on Fc-CLEC1; compared with parent 11H11
[8] = biological target: Fc-CLEC-1A (recombinant human Fc-CLEC-1 protein, OSE IMMUNOTHERAPEUTICS) (human); assay: CLEC1 binding assay (ELISA) on Fc-CLEC1; compared with parent 6C5
[9] = biological target: Fc-CLEC-1A (recombinant human Fc-CLEC-1 protein, OSE IMMUNOTHERAPEUTICS) (human); assay: CLEC1 binding assay (ELISA) on Fc-CLEC1; compared with parent 14H9

Measured: binding

B1: humanized 11H11 (antibody, human IgG4, V domains shown)
VH: QIQLVQSGSELKKPGASVKVSCKASGYTFTNFGMNWVRQAPGQGLEWMGWINTNTGEPTYADDFKGRFVFSLDTSVSTAYLQISSLKAEDTATYFCARGAPAWFTYWGQGTTVTVSS
VL: DIQMTQSPSSLSASVGDRVTITCRASESIYSYLAWYQQKPGKAPKFLIYNAKTLASGVPSRFSGSGSGTDFTLTISSLQPEDFATYYCQHHFGTPLTFGQGTKLEIK
binds: [1] | [2] | [3] | [4] | [5] | [6]

B2: 11H11m (antibody, V domains shown)
VH: QIQLVQSGSELKKPGASVKVSCKASGYTFTNFGMNWVRQAPGQGLEWMGWINTNTGEPTYADDFKGRFVFSLDTSVSTAYLQISSLKAEDTATYFCARGAPAWFTYWGQGTTVTVSS
VL: DIQMTQSPSSLSASVGDRVTITCRASESIYSYLAWYQQKPGKSPKFLIYNAKTLASGVPSRFSGSGSGTDFTLTISSLQPEDFATYYCQHHFGTPLTFGQGTKLEIK
binds: [7]

B3: humanized 6C5 (antibody, V domains shown)
VH: QVQLVQSGAEVKKPGSSVKMSCKASGYTFTDYVISWVRQAPGQGLEWMGEIYPGSGNTYYNQKFQGRVTLTADKSTSTAYMELSSLRSEDTAVYYCAGGGSSHFDYWGQGTTVTVSS
VL: EIVLTQSPATLSLSPGERATLSCRASQSVDNHGFSFMNWFQQKPGQAPRLLIYAASNRGTGIPARFSGSGSGTDFTLTISSMEPEDFAVYYCQQSKEVPWTFGGGTKVEIK
binds: [1] | [2] | [3] | [4] | [5] | [6]

B4: 6C5m2 (antibody, V domains shown)
VH: QVQLVQSGAEVKKPGSSVKMSCKASGYTFTDYVISWVRQAPGQGLEWMGEIYPGSGNTYYNQKFQGRVTLTADKSTSTAYMELSSLRSEDTAVYYCAGGGSSHFDYWGQGTTVTVSS
VL: EIVLTQSPATLSLSPGERATLSCRASQSVDNHGFSFMNWFQQKPGQPPKLLIYAASNRGTGIPARFSGSGSGTDFTLTISSMEPEDFAVYYCQQSKEVPWTFGGGTKVEIK
binds: [8]

B5: 6C5m1 (antibody, V domains shown)
VH: QVQLVQSGAEVKKPGSSVKMSCKASGYTFTDYVISWVRQAPGQGLEWMGEIYPGSGNTYYNQKFQGRVTLTADKSTSTAYIELSSLRSEDTAVYYCAGGGSSHFDYWGQGTTVTVSS
VL: EIVLTQSPATLSLSPGERATLSCRASQSVDNHGFSFMNWFQQKPGQAPRLLIYAASNRGTGIPARFSGSGSGTDFTLTISSMEPEDFAVYYCQQSKEVPWTFGGGTKVEIK
binds: [8]

B6: humanized 14H9 (antibody, V domains shown)
VH: QVQLVESGGGVVQPGRSLRLSCAISGFTLTTYGIHWVRQAPGKGLEWVAVIWSDASTIYASSLKSRFTISKDNTKNTVYLQMTSLRAEDTAVYYCARHGGYYNYFDYWGQGTLVTVSS
VL: DIQMTQSPSSLSASVGDRVTITCHASQNINVWLSWYQQKPGKAPKLLLYKASNLHTGVPSRFSGSGSGTDFTLTISSLQPEDIATYYCQQGQSYWTFGGGTKVEIK
binds: [1] | [2] | [3] | [5] | [6]

B7: 14H9m (antibody, V domains shown)
VH: QVQLVESGGGVVQPGRSLRLSCAISGFTLTTYGIHWVRQAPGKGLEWVAVIWSDASTIYASSLKSRFTISKDNSKNTVYLQMTSLRAEDTAIYYCARHGGYYNYFDYWGQGTLVTVSS
VL: DIQMTQSPSSLSASVGDRVTITCHASQNINVWLSWYQQKPGKAPKLLLYKASNLHTGVPSRFSGSGSGTDFTLTISSLQPEDIATYYCQQGQSYWTFGGGTKVEIK
binds: [9]
